35 compounds from the supplement of paper PMC11348887 can be followed below.

Where a name gives a salt, the structure may show the parent alone. The list shows a part of the results. Most entries show no effect beyond the scatter of the controls.

For the first experiment, the system named is hPSC-derived cortical neurons (WA09). The experiment can be described thus: nucleus roundness z-score vs screen plate; higher = rounder nuclei (more mature). The note with it: 5 µM; treatment: days 7-14 after plating, readout day 21.
Take `CC(=O)OCC(COC(C)=O)OC(C)=O` [Triacetin]: the nucleus roundness z-score is 1.18. Still for that read-out and setting: with `N=C(N)c1ccc(OCCCCCOc2ccc(C(=N)N)cc2)cc1` [Pentamidine] the figure was -7.44. `O=C(Cc1ccc(-c2ccc(OCCN3CCOCC3)cc2)cn1)NCc1ccccc1` showed a nucleus roundness z-score of -6.99. `COc1ccc(C2CC(c3ccccc3)=NN2c2ccc(S(N)(=O)=O)cc2)cc1` (stereo not given) yielded a nucleus roundness z-score of 0.0678. Consider `CN(C)c1ccc(O)c2c1C[C@H]1C[C@H]3[C@H](N(C)C)C(O)=C(C(N)=O)C(=O)[C@@]3(O)C(O)=C1C2=O` [Minocycline HCl], for which the nucleus roundness z-score was -0.251. `N[C@@H](Cc1c[nH]c2ccc(O)cc12)C(=O)O` [5-hydroxytryptophan (5-HTP)] yielded a nucleus roundness z-score of 0.386.

The compound `CC1=C(C(=O)Nc2cc3cn[nH]c3cc2F)C(c2ccc(C(F)(F)F)cc2)CC(=O)N1` (stereo not given) yielded a nucleus roundness z-score of 0.555.

The test system is the same in a further experiment. Briefly: KCl-induced FOS+/EGR-1+ double-positive nuclei fraction z-score (KCl minus unstimulated); higher = stronger activity-induced IEG response. The note with it: 5 µM; treatment: days 7-14 after plating, readout day 21.
For the compound `NC(=O)CC[C@H](N)C(=O)O` [L-Glutamine], the “KCl-induced FOS+/EGR-1+ double-positive nuclei fraction z-score” value amounted to 3.15. Still for that read-out and setting: with `Cc1[nH]c2ccccc2c1CCNCc1ccc(/C=C/C(=O)NO)cc1` [Panobinostat (LBH589)] the figure was -0.627. Take `CCCC(=O)Nc1ncnc2c1ncn2[C@@H]1O[C@@H]2COP(=O)(O)O[C@H]2[C@H]1OC(=O)CCC` [Dibutyryl-cAMP (Bucladesine)]: the “KCl-induced FOS+/EGR-1+ double-positive nuclei fraction z-score” value amounted to 2.16.

Consider `CC(C)Oc1ccc(C(=O)N[C@H](CNC(=O)CN(C)C)Cc2ccc(-c3cn4cccc([C@H](C)O)c4n3)cc2)cc1Cl`, for which the “KCl-induced FOS+/EGR-1+ double-positive nuclei fraction z-score” value is -1.02. Turning to `Nc1nc(N)c2nc(-c3ccccc3)c(N)nc2n1` [Triamterene], the “KCl-induced FOS+/EGR-1+ double-positive nuclei fraction z-score” value was -0.251.

With `COc1c(C)c2c(c(O)c1C/C=C(\C)CCC(=O)OCCN1CCOCC1)C(=O)OC2` [Mycophenolate Mofetil], the “KCl-induced FOS+/EGR-1+ double-positive nuclei fraction z-score” value is -0.162.

With `CC(C(=O)O)c1cccc(Oc2ccccc2)c1` (stereo not given) [Fenoprofen Calcium], the “KCl-induced FOS+/EGR-1+ double-positive nuclei fraction z-score” value turned out to be 4.93.

As to `C[C@H](CCC(=O)O)[C@H]1CC[C@H]2[C@@H]3C[C@H](O)[C@@H]4C[C@H](O)CC[C@]4(C)[C@H]3CC[C@]12C` [Hyodeoxycholic acid (HDCA)], the “KCl-induced FOS+/EGR-1+ double-positive nuclei fraction z-score” value is 0.0716. In the case of `C[N+](C)(C)CCO.[Cl-]` [Choline Chloride], the “KCl-induced FOS+/EGR-1+ double-positive nuclei fraction z-score” value was found to be 1.12. Still for that read-out and setting: with `Nc1ccc(S(=O)(=O)NC(=O)c2ccccc2)cc1` [Sulfabenzamide] the figure was 0.153; with `C=CC(=O)Nc1cccc(C)c1Nc1ncc2cc(-c3c(Cl)c(OC)cc(OC)c3Cl)ccc2n1`, -0.855; with `COc1cccc2c1C(=O)c1c(O)c3c(c(O)c1C2=O)C[C@@](O)(C(=O)CO)C[C@@H]3O[C@H]1C[C@H](N)[C@H](O)[C@H](C)O1` [Doxorubicin (Adriamycin)], -0.215. Take `O=C(O)c1cccc(-c2noc(-c3ccccc3F)n2)c1` [Ataluren (PTC124)]: the “KCl-induced FOS+/EGR-1+ double-positive nuclei fraction z-score” value is 0.46. Take `O=C(NC(NC(=S)Nc1ccc(F)c([N+](=O)[O-])c1)C(Cl)(Cl)Cl)C(c1ccccc1)c1ccccc1` (stereo not given): the “KCl-induced FOS+/EGR-1+ double-positive nuclei fraction z-score” value came out at 0.00891. For `CC#CC(=O)N1CC[C@@H](n2c(=O)n(-c3ccc(Oc4ccccc4)cc3)c3c(N)ncnc32)C1`, the “KCl-induced FOS+/EGR-1+ double-positive nuclei fraction z-score” value was -0.183. Turning to `Nc1nc(=O)c2c([nH]1)NC[C@H](CNc1ccc(C(=O)N[C@@H](CCC(=O)O)C(=O)O)cc1)N2C=O` [Calcium Levofolinate], the “KCl-induced FOS+/EGR-1+ double-positive nuclei fraction z-score” value turned out to be 0.435. As for `OCC(O)CN1CCN(c2ccccc2)CC1` (stereo not given) [Dropropizine], the “KCl-induced FOS+/EGR-1+ double-positive nuclei fraction z-score” value is -0.17. Consider `O=C(O)CCC(=O)c1ccc(-c2ccccc2)cc1` [Fenbufen], for which the “KCl-induced FOS+/EGR-1+ double-positive nuclei fraction z-score” value came out at 0.196.

Consider `Cc1cn[nH]c1` [Fomepizole], for which the “KCl-induced FOS+/EGR-1+ double-positive nuclei fraction z-score” value amounted to 0.19.

Take `COc1nc(C)nc(Cl)c1NC1=NCCN1` [Moxonidine]: the “KCl-induced FOS+/EGR-1+ double-positive nuclei fraction z-score” value turned out to be 0.0171. For `CC(C)COc1ccc(CNC(=O)N(Cc2ccc(F)cc2)C2CCN(C)CC2)cc1` [Pimavanserin], the “KCl-induced FOS+/EGR-1+ double-positive nuclei fraction z-score” value is -0.76. For the compound `C[C@@H](c1ncncc1F)[C@](O)(Cn1cncn1)c1ccc(F)cc1F` [Voriconazole], the “KCl-induced FOS+/EGR-1+ double-positive nuclei fraction z-score” value is 0.0346.

Regarding `Cc1ncc(CO)c(CO)c1O` [Pyridoxine HCl], the “KCl-induced FOS+/EGR-1+ double-positive nuclei fraction z-score” value was determined as 1.11. In the case of `O=C1c2c(O)cc(O)cc2O[C@H](c2cc(O)c(O)c(O)c2)[C@H]1O` [Dihydromyricetin], the “KCl-induced FOS+/EGR-1+ double-positive nuclei fraction z-score” value came out at 1.66.

With `Cc1ccc(-n2nc(C(C)(C)C)cc2NC(=O)Nc2ccc(OCCN3CCOCC3)c3ccccc23)cc1` [BIRB 796 (Doramapimod)], the “KCl-induced FOS+/EGR-1+ double-positive nuclei fraction z-score” value is -0.858. Take `O=C(NNc1ccccc1)c1ccncc1`: the “KCl-induced FOS+/EGR-1+ double-positive nuclei fraction z-score” value was -0.755.

`C=CC1=C(C(=O)O)N2C(=O)[C@@H](NC(=O)/C(=N\OCC(=O)O)c3csc(N)n3)[C@H]2SC1` [Cefixime]: the “KCl-induced FOS+/EGR-1+ double-positive nuclei fraction z-score” value was 0.929.

As to `CC(C)(C)C#Cc1cc(N(C(=O)[C@H]2CC[C@H](C)CC2)[C@H]2CC[C@H](O)CC2)c(C(=O)O)s1` [VX-222 (VCH-222_ Lomibuvir)], the “KCl-induced FOS+/EGR-1+ double-positive nuclei fraction z-score” value is 0.283.
